{"source": "patent US8337813B2", "about": "(Northwestern University, priority 2007, dated 2012)", "key": {"[1]": {"assay": "general procedure: Fmoc solid-phase peptide synthesis; Wang resin; HATU/DIPEA", "conditions": "whole synthesis; for isolated yield: overall yield after 19 steps"}, "[2]": {"assay": "general procedure: Fmoc solid-phase peptide synthesis; Wang resin preloaded with fmoc-alanine (NovaBiochem), 100-200 mesh, 0.68 mmol/g; HATU/DIPEA", "conditions": "late stage modification step"}, "[3]": {"conditions": "scale 1.0001 g fmoc-ala-Wang resin (0.68 mmol/g)"}}}
{"substance": "Diethylenetriaminepentaacetic Acid-Ala-Pro-Leu-Ala-Leu-Trp-Ala-PEG3-Ala", "values": [{"measurement": "isolated mass", "setting": "[1]", "result": 107.87, "unit": "mg"}, {"measurement": "isolated yield", "setting": "[1]; scale of the general procedure 1.09347 g resin, 0.68 mmol/g resin loading", "result": 10, "unit": "%"}]}
{"substance": "Diethylenetriaminepentaacetic Acid-Ala-Pro-Leu-Ala-Leu-Trp-Ala-PEG6-Ala", "values": [{"measurement": "isolated yield", "setting": "[1]; [3]", "result": 10, "unit": "%"}, {"measurement": "isolated mass", "setting": "[1]; [3]", "result": 106.54, "unit": "mg"}]}
{"substance": "Gadolinium(III)-diethylenetriaminepentaacetic Acid-Ala-Pro-Leu-Ala-Leu-Trp-Ala-PEG3-Ala (APLALWA; Gd-DTPA N-cap, PEG3-Ala C-terminus; printed: Ala-Pro-Leu-Ala-Leu-Trp-Ala-)", "values": [{"measurement": "step yield", "setting": "[2]", "result": 86, "unit": "%"}]}
